Experimental data: the supplement of paper PMC4683952
This is one part of the list. Cut-off read from the data, not from the text of the source: active = 2 or more and inactive = the rest. This data set is noisy: repeats of one test often differ as much as different tests do.

test system: Lgr5 (MarsCy1-Lgr5-EGFP, U2OS); test: cell-surface Lgr5 expression (SCi1 fluorescence, background-subtracted) relative to WT DMSO (fold of DMSO control); higher = more Lgr5 at the plasma membrane; settings: U2OS MarsCy1-Lgr5-EGFP stable; treatment time: overnight; library: ActiProbe-5K (TimTec); 25 µM

Structure (SMILES) | cell-surface Lgr5 expression
O=C1CC2CS(=O)(=O)CC2N1c1cc(Cl)ccc1Cl (stereo unspecified) | inactive: 1.1
N#CCCN(CCC#N)c1ccncc1 | inactive: 1.42
CN(C)CC#CC1(O)CCCCC1 | inactive: 1.22
Cc1nnc(NC(=O)Cn2nc(C(F)(F)F)c(Cl)c2C2CC2)s1 | inactive: 1.16
CCN(CC)CCCNC(=O)C(C)C | inactive: 0.977
O=[N+]([O-])c1ccc(/N=C/c2ccc(Br)o2)cc1 | inactive: 1.04
O/N=C(/C=C\c1ccccc1)\C=C\c1ccccc1 | inactive: 0.604
CN(C)c1ccc(/C=N\c2ccc3cc4ccc(/N=C\c5ccc(N(C)C)cc5)cc4nc3c2)cc1 | inactive: 1.74
O=C(N/N=C/c1ccc(Br)s1)c1cnccn1 | active: 2
CS(=O)(=O)NC1c2ccccc2-c2ccccc21 | inactive: 1.2
O=C1c2sc3nncc(=O)n3c2C(=O)N1c1ccccc1 | inactive: 1.44
Cc1cc2c(c(=S)[nH]1)C(=O)OC2 | inactive: 1.01
Cc1cc(C(=O)O)c(CSCc2cc(C(=O)O)c(C)o2)o1 | inactive: 1.12
NC(=S)N/N=C\c1cc(Br)cc(Br)c1O | inactive: 0.707
O=S(=O)(c1ccc(F)c(Cl)c1)N1CCCC1 | inactive: 1.31
N#CCCOC1(C#CCN2CCCCC2)CCCCC1 | inactive: 1.09
CC(C)NC(=S)NC(=O)C1CCCCC1 | inactive: 1.09
CCCCn1c(SC(C)CC)nc2c1c(=O)[nH]c(=O)n2C (stereo unspecified) | inactive: 1.65
C#CCSc1nc(-c2ccccc2)cc(-c2ccccc2)c1C#N | inactive: 1.04

Given with tabs: part of the list above.
Structure (SMILES)	cell-surface Lgr5 expression
CS(=O)(=O)NC1c2ccccc2-c2ccccc21	inactive: 1.2
O=C1c2sc3nncc(=O)n3c2C(=O)N1c1ccccc1	inactive: 1.44
Cc1cc2c(c(=S)[nH]1)C(=O)OC2	inactive: 1.01

(continued)

Structure (SMILES) | cell-surface Lgr5 expression
Cn1cc(C=O)c2ccc(F)cc21 | inactive: 1.02
COc1ccc(S(=O)(=O)NCC2CCCO2)cc1 (stereo unspecified) | inactive: 1.07
Cl.Fc1ccccc1CSC1=NCCN1 | inactive: 1.07
c1csc(-c2noc(COc3ccc4c(c3)CCC4)n2)c1 | inactive: 1.31
OCn1cnc2ccccc21 | inactive: 0.958
CC(=O)Nc1nonc1NC(=O)C(F)(F)F | inactive: 1.18
CN1CCc2cc(C=O)ccc21 | inactive: 1.25
CC(=O)OC1CC(C)CC(C)(C)C1 (stereo unspecified) | inactive: 1.31
c1ccc2c3c([nH]c2c1)CCCC3 | inactive: 1.11
O=C(C1=C(O)C(=O)N(CCN2CCOCC2)C1c1ccco1)c1ccco1 (stereo unspecified) | inactive: 1.08
Oc1c(Br)cc(Br)cc1/C=N\c1ccc(Cl)cn1 | inactive: 1.18
C1CC(/CCC1)=N/Oc1ccc(cc1)[N+]([O-])=O | inactive: 1
N#CC1=C(N)Oc2c(c(=O)oc3ccccc23)C12C(=O)Nc1ccccc12 (stereo unspecified) | inactive: 1
Sc1nnc(-c2ccccn2)n1/N=C/C=C\c1ccco1 | inactive: 1.11
Cc1nc2sc(-c3ccon3)c(-n3cccc3)c2c(C)c1Cl | inactive: 1.2
Cn1cnc2sc3c(c2c1=O)CCCC3 | inactive: 0.996
O=Cc1cnn2cccnc12 | inactive: 1.34
CS(=O)(=O)N1CCCc2cc([N+](=O)[O-])cc([N+](=O)[O-])c21 | inactive: 1.21
COC(=O)C(C(C)=O)(N1CCOCC1)N1CCOCC1 | inactive: 1.22

Structure (SMILES) | cell-surface Lgr5 expression
O=C1NCCC2C1N=C(N1CCCCC1)N2C1OC(CO)C(O)C1O (stereo unspecified) | inactive: 1.16
O=C1Nc2ccccc2/C1=N\Nc1nnn[nH]1 | inactive: 1.25
O=[N+]([O-])c1ccc(Cn2cc[n+](Cc3ccc([N+](=O)[O-])cc3)c2)cc1 | inactive: 1.28
Cc1ccc(OS(=O)(=O)C(F)(F)F)cc1 | inactive: 1.28
Cc1n[nH]c(C)c1CCC(=O)NN | inactive: 1.09
CC1=C(C(=O)OC(C)C)C(c2ccc(C)o2)NC(=O)N1 (stereo unspecified) | inactive: 1.11
CSc1nc2n(n1)C(c1ccc(Cl)cc1)C=C(c1ccccc1)N2 (stereo unspecified) | inactive: 0.739
O=C1OCc2cc(-n3cccc3)ccc21 | inactive: 1.16
COc1cc(=O)oc2cc(O)ccc12 | inactive: 1.04
CC(C)(C)C(N)Cn1ccnc1 (stereo unspecified) | inactive: 1.39
Cn1nnnc1SCC(=O)Nc1nccs1 | inactive: 1.16
Clc1cc2c(cc1/C=N/Nc1nc3ccccc3[nH]1)OCO2 | inactive: 0.755
CC1CCc2c(sc(N)c2C(=O)OC(C)C)C1 (stereo unspecified) | inactive: 1.07
CC1(C)Oc2ccc(Br)cc2O1 | inactive: 0.671
COCCN1C(=O)CCC2(CCC(=O)NC2)C1=O (stereo unspecified) | inactive: 1.35
CCCCCN(CCCCC)c1nc2c(c(=O)[nH]c(=O)n2C)n1C | inactive: 1.41
Fc1ccc([C@@H]2Nc3c(F)cccc3[C@@H]3C=CC[C@H]32)cc1 | inactive: 1.17
O=C(CC1NC(=O)N(C2CCCCC2)C1=O)NCC12CC3CC(CC(C3)C1)C2 (stereo unspecified) | inactive: 0.785
